Read-outs that look alike come from different tables or passages of the source. At least one compound was matched to its structure with a doubt left.
Tested on: MNH 46686 strain
Test: Antibiotic susceptibility test by disk diffusion method
Type: cell-based, Lachnospiraceae sp. MNH 46686
Excerpt: 2.4 Antibiotic Susceptibility Test of MNH 46686 Strain by Disk Diffusion Method

SMILES: CN(C)[C@@H]1C(O)=C(C(N)=O)C(=O)[C@@]2(O)C(O)=C3C(=O)c4c(O)cccc4[C@@](C)(O)[C@H]3C[C@@H]12 [Tetracycline]
- Note (susceptibility of MNH 46686 strain to the antibiotic): Sensitive
- Note (susceptibility of MNH 46686 strain to the antibiotic) (listed as tetracycline): sensitive

Reference: patent US20250064864A1, “MICROBIAL STRAIN OF LACHNOSPIRACEAE, DRUG FOR PREVENTING OR TREATING TUMORS AND USE” (MOON (GUANGZHOU) BIOTECH CO., LTD., priority 2021, published 2025)
